# Reference: paper PMC10535407
# Molecular target: CcpA (Bacillus licheniformis) (UniProt Q65G28)
# Assay: EMSA
# Settings: recombinant protein; label: biotin (primer Pzwf-Bio-F); probe letters rebuilt from the primers and the genome
sequence,measurement,value
ATATCCTTTCCTCCTGCTAAAAACTTCATCTATCACAAGCATACAGGAAGTCTGAGAAAAAAGAAACGCCGGCTTCACGCCATGCTATGCAACTAAATACCCTGCCCGTTTTCAGTAAACTTTTCATACGATTCGATCTCAAATGTTTGCTTTAAAGGATTATTAGCTTTAAAATGAAGAAAATAAACTTAGCTTCGAATAAAGTGAGGTACGTTTAAT (double strand) [zwF promoter fragment],binding result,binds

# For at least one entry, the source does not settle the construct or the ends of the probe.
